These are yes or no findings as the source states them, for the method shown. In cells and extracts the contact can be indirect. A yes stands for co-enrichment or nearness to the bait. Other partners may have been found.

Amino acid sequences for entries named in this document (tags omitted).
UniProt P16403: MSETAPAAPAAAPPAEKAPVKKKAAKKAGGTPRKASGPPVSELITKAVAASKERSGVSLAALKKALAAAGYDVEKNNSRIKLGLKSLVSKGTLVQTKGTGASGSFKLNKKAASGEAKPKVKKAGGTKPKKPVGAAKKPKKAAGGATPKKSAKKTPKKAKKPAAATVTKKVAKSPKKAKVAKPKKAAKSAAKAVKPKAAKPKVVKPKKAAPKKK
UniProt Q6ZN18: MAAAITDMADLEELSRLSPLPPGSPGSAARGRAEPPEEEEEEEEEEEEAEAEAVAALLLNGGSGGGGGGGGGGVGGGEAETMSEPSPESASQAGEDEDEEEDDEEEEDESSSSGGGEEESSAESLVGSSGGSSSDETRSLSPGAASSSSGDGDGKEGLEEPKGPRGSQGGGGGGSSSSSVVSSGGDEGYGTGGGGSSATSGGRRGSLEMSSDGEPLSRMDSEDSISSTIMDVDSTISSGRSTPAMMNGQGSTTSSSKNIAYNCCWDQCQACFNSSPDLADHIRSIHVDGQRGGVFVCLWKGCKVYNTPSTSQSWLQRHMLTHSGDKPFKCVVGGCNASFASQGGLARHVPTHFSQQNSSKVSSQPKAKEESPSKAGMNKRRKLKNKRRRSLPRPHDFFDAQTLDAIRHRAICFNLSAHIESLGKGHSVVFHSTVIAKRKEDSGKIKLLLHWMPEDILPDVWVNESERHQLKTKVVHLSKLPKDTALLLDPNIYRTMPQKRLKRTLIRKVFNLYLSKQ
UniProt Q9UBL3: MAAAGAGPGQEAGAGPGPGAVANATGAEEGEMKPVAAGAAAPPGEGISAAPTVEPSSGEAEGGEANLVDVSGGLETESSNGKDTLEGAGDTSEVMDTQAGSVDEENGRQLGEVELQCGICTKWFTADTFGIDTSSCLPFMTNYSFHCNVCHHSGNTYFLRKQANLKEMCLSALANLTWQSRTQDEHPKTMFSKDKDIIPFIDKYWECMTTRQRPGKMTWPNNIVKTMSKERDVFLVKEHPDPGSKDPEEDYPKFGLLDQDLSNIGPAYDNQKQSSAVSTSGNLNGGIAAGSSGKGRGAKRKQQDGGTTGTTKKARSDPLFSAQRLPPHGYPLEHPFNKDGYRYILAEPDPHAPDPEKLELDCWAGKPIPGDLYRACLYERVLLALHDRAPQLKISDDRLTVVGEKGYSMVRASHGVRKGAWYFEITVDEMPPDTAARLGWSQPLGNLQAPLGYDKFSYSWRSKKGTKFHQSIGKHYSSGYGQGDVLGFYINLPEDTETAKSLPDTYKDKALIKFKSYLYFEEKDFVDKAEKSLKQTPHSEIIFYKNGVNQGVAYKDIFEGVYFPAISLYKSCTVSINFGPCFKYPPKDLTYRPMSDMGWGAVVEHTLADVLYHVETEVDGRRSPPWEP
UniProt Q9P0U4: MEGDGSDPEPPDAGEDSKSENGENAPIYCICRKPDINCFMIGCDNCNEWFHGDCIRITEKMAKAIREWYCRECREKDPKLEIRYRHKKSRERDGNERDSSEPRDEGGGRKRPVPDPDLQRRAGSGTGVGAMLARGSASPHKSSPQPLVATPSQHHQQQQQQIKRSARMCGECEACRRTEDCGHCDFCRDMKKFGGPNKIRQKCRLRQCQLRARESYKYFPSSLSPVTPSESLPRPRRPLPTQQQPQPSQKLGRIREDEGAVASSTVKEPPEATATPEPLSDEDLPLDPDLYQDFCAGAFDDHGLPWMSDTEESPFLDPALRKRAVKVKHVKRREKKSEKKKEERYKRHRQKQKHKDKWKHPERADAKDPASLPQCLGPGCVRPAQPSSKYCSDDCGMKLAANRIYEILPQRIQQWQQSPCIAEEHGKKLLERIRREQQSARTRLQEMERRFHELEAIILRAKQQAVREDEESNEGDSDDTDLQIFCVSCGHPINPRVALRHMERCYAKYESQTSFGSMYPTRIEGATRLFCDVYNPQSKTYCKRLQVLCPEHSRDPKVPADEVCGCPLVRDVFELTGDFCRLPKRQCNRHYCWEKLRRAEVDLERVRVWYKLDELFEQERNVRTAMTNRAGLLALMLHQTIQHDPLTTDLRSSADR
UniProt Q01105: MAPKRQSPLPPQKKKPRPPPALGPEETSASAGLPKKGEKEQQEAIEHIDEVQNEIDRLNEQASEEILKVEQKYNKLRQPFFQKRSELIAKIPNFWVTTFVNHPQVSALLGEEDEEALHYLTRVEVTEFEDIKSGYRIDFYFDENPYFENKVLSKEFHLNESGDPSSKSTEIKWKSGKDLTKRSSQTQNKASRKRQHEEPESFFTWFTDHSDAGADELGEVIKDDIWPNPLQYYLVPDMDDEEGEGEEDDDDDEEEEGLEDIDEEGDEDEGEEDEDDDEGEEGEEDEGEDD
UniProt Q15022: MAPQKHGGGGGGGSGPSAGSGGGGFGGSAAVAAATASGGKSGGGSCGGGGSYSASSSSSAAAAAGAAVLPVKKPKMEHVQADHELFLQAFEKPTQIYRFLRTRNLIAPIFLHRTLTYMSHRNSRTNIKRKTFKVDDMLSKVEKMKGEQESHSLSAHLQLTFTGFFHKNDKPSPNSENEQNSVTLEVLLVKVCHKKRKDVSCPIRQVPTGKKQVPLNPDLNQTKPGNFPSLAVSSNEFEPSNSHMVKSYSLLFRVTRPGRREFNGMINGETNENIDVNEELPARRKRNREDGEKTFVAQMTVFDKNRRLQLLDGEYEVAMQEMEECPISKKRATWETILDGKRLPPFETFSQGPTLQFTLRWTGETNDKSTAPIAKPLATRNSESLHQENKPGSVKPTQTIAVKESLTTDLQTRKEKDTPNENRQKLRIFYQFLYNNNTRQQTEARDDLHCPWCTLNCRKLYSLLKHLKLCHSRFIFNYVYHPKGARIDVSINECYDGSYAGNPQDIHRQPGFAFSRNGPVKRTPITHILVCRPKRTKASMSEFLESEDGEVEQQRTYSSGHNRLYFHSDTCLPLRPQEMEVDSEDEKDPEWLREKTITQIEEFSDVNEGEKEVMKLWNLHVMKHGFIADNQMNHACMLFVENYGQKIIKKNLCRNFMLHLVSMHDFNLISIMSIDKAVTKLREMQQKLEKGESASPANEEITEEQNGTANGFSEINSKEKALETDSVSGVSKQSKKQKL

Common to all, as to experiment: affinity purification with mass spectrometry
Experiment [1] deals with H1.2 K17Ac (H1.2 acetylated at lysine 17) (human) (UniProt P16403).
For experiment [2], the target named is linker histone H1.2 (unmodified) (human) (UniProt P16403).
The target of experiment [3] is H1.2 K64Ac (H1.2 acetylated at lysine 64) (human) (UniProt P16403).
For experiment [4], the target named is H1.2 K17K64Ac (H1.2 acetylated at lysines 17 and 64) (human) (UniProt P16403).

With AEBP2 (from UniProt Q6ZN18 1-517), the binding result in experiment [1] and in experiment [2] was “binds” in each case.
Take ASH2L (from UniProt Q9UBL3 1-628): the binding result in experiment [1] and in experiment [2] was “binds” throughout.
With CXXC1 (from UniProt Q9P0U4 1-656), the binding entry in experiment [1] and in experiment [2] was “binds” each time.
With SET (from UniProt Q01105 1-290), the binding entry in experiment [3], in experiment [1], in experiment [4] and in experiment [2] was “binds” in each case.
As to SUZ12 (from UniProt Q15022 1-739), the binding result in experiment [1] and in experiment [2] was “binds” each time.

B1: ASCC2 (protein, UniProt Q9H1I8 1-757)
chain: MPALPLDQLQITHKDPKTGKLRTSPALHPEQKADRYFVLYKPPPKDNIPALVEEYLERATFVANDLDWLLALPHDKFWCQVIFDETLQKCLDSYLRYVPRKFDEGVASAPEVVDMQKRLHRSVFLTFLRMSTHKESKDHFISPSAFGEILYNNFLFDIPKILDLCVLFGKGNSPLLQKMIGNIFTQQPSYYSDLDETLPTILQVFSNILQHCGLQGDGANTTPQKLEERGRLTPSDMPLLELKDIVLYLCDTCTTLWAFLDIFPLACQTFQKHDFCYRLASFYEAAIPEMESAIKKRRLEDSKLLGDLWQRLSHSRKKLMEIFHIILNQICLLPILESSCDNIQGFIEEFLQIFSSLLQEKRFLRDYDALFPVAEDISLLQQASSVLDETRTAYILQAVESAWEGVDRRKATDAKDPSVIEEPNGEPNGVTVTAEAVSQASSHPENSEEEECMGAAAAVGPAMCGVELDSLISQVKDLLPDLGEGFILACLEYYHYDPEQVINNILEERLAPTLSQLDRNLDREMKPDPTPLLTSRHNVFQNDEFDVFSRDSVDLSRVHKGKSTRKEENTRSLLNDKRAVAAQRQRYEQYSVVVEEVPLQPGESLPYHSVYYEDEYDDTYDGNQVGANDADSDDELISRRPFTIPQVLRTKVPREGQEEDDDDEEDDADEEAPKPDHFVQDPAVLREKAEARRMAFLAKKGYRHDSSTAVAGSPRGHGQSRETTQERRKKEANKATRANHNRRTMADRKRSKGMIPS
As to B1, the binding result in experiment [1] and in experiment [4] was “binds” each time.

Source of the values: publication doi:10.1101/2021.06.08.447242.
